# Experimental data published in the supplement of paper PMC8728848.
# The other results are listed elsewhere or left out.
# B1: CALR truncated at D342 (Homo sapiens) (protein)
# chain: EPAVYFKEQFLDGDGWTSRWIESKHKSDFGKFVLSSGKFYGDEEKDKGLQTSQDARFYALSASFEPFSNKGQTLVVQFTVKHEQNIDCGGGYVKLFPNSLDQTDMHGDSEYNIMFGPDICGPGTKKVHVIFNYKGKNVLINKDIRCKDDEFTHLYTLIVRPDNTYEVKIDNSQVESGSLEDDWDFLPPKKIKDPDASKPEDWDERAKIDDPTDSKPEDWDKPEHIPDPDAKKPEDWDEEMDGEWEPPVIQNPEYKGEWKPRQIDNPDYKGTWIHPEIDNPEYSPDPSIYAYDNFGVLGLDLWQVKSGTIFDNFLITNDEAYAEEFGNETWGVTKAAEKQMKD
# Key:
# Assay in all cases: glycan array binding signal (z-score within array); higher = stronger binding
# Conditions in all cases: glycan notation: IUPAC condensed, linker removed
# [1] = target: Gal(b1-4)GlcNAc(b1-2)[Gal(b1-4)GlcNAc(b1-4)]Man(a1-3)[GlcNAc(b1-4)][Gal(b1-4)GlcNAc(b1-2)Man(a1-6)]Man(b1-4)GlcNAc(b1-4)GlcNAc
# How it was run: (§1)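 Glycan array data were curated from 3228 arrays in the Consortium for Functional Glycomics database and kept only where the protein sequence was available. Glycan names were converted to IUPAC-condensed notation, and columns mapping to the same glycan were averaged. The binding signal is a within-array Z-score, averaged across arrays of the same protein sequence at different concentrations or buffers and across linkers. Negative Z-scores can be read as non-binding.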
# [2] = target: Gal(b1-4)GlcNAc(b1-2)[Gal(b1-4)GlcNAc(b1-4)]Man(a1-3)[GlcNAc(b1-4)][Gal(b1-4)GlcNAc(b1-2)[Gal(b1-4)GlcNAc(b1-6)]Man(a1-6)]Man(b1-4)GlcNAc(b1-4)GlcNAc
# How it was run: as §1
# [3] = target: Gal(b1-4)GlcNAc(b1-2)[Gal(b1-4)GlcNAc(b1-4)]Man(a1-3)[GlcNAc(b1-4)][Gal(b1-4)GlcNAc(b1-2)[Gal(b1-4)GlcNAc(b1-6)]Man(a1-6)]Man(b1-4)GlcNAc(b1-4)[Fuc(a1-6)]GlcNAc
# How it was run: as §1
# [4] = target: Gal(b1-4)GlcNAc(b1-2)[Gal(b1-4)GlcNAc(b1-6)]Man(a1-6)[Gal(b1-4)GlcNAc(b1-2)Man(a1-3)]Man(b1-4)GlcNAc(b1-4)GlcNAc
# How it was run: as §1
# [5] = target: Gal(b1-4)GlcNAc(b1-2)[Gal(b1-4)GlcNAc(b1-6)]Man(a1-6)[Gal(b1-4)GlcNAc(b1-2)Man(a1-3)]Man(b1-4)GlcNAc(b1-4)[Fuc(a1-6)]GlcNAc
# How it was run: as §1
# [6] = target: Gal(b1-4)GlcNAc(b1-2)[Gal(b1-4)GlcNAc(b1-6)]Man(a1-6)[GlcNAc(b1-4)][Gal(b1-4)GlcNAc(b1-2)Man(a1-3)]Man(b1-4)GlcNAc(b1-4)GlcNAc
# How it was run: as §1
# [7] = target: Gal(b1-4)GlcNAc(b1-3)Gal(b1-3)GlcNAc
# How it was run: as §1
# [8] = target: Gal(b1-4)GlcNAc(b1-3)Gal(b1-4)Glc
# How it was run: as §1
# [9] = target: Gal(b1-4)GlcNAc(b1-3)Gal(b1-4)GlcNAc
# How it was run: as §1
# [10] = target: Gal(b1-4)GlcNAc(b1-3)Gal(b1-4)GlcNAc(b1-3)Gal(b1-4)GlcNAc
# How it was run: as §1
# [11] = target: Gal(b1-4)GlcNAc(b1-3)Gal(b1-4)[Fuc(a1-3)GlcNAc(b1-6)]Gal(b1-4)Glc
# How it was run: as §1
# [12] = target: Gal(b1-4)GlcNAc(b1-3)Gal(b1-4)[Fuc(a1-3)]GlcNAc(b1-3)Gal(b1-4)[Fuc(a1-3)]GlcNAc
# How it was run: as §1
# [13] = target: Gal(b1-4)GlcNAc(b1-3)GalNAc
# How it was run: as §1
# [14] = target: Gal(b1-4)GlcNAc(b1-3)[Gal(b1-4)GlcNAc(b1-6)]Gal(b1-4)GlcNAc
# How it was run: as §1
# [15] = target: Gal(b1-4)GlcNAc(b1-3)[Gal(b1-4)GlcNAc(b1-6)]GalNAc
# How it was run: as §1
# [16] = target: Gal(b1-4)GlcNAc(b1-3)[GlcNAc(b1-6)]Gal(b1-4)GlcNAc
# How it was run: as §1
# [17] = target: Gal(b1-4)GlcNAc(b1-6)Gal(b1-4)GlcNAc
# How it was run: as §1
# [18] = target: Gal(b1-4)GlcNAc(b1-6)GalNAc
# How it was run: as §1
# [19] = target: Gal(b1-4)GlcNAc(b1-6)[Gal(b1-3)]GalNAc
# How it was run: as §1
# Gal(b1-4)GlcNAc6P = target: Gal(b1-4)GlcNAc6P
# How it was run: as §1
# Gal(b1-6)Gal = target: Gal(b1-6)Gal
# How it was run: as §1
# Gal3S(b1-3)GalNAc = target: Gal3S(b1-3)GalNAc
# How it was run: as §1
# Gal3S(b1-3)GlcNAc = target: Gal3S(b1-3)GlcNAc
# How it was run: as §1
# [20] = target: Gal3S(b1-3)[Fuc(a1-4)]GlcNAc
# How it was run: as §1
# Gal3S(b1-4)Glc = target: Gal3S(b1-4)Glc
# How it was run: as §1
# Gal3S(b1-4)Glc6S = target: Gal3S(b1-4)Glc6S
# How it was run: as §1
# Gal3S(b1-4)GlcNAc = target: Gal3S(b1-4)GlcNAc
# How it was run: as §1
# Gal3S(b1-4)GlcNAc6S = target: Gal3S(b1-4)GlcNAc6S
# How it was run: as §1
# [21] = target: Gal3S(b1-4)[Fuc(a1-3)]Glc
# How it was run: as §1
# [22] = target: Gal3S(b1-4)[Fuc(a1-3)]Glc6S
# How it was run: as §1
# Gal3S4S(b1-4)GlcNAc = target: Gal3S4S(b1-4)GlcNAc
# How it was run: as §1
# Gal3S6S(b1-4)GlcNAc = target: Gal3S6S(b1-4)GlcNAc
# How it was run: as §1
# Gal3S6S(b1-4)GlcNAc6S = target: Gal3S6S(b1-4)GlcNAc6S
# How it was run: as §1
# Gal4S(b1-4)GlcNAc = target: Gal4S(b1-4)GlcNAc
# How it was run: as §1
# Gal4S6S(b1-4)GlcNAc = target: Gal4S6S(b1-4)GlcNAc
# How it was run: as §1
# Gal6P(b1-4)GlcNAc = target: Gal6P(b1-4)GlcNAc
# How it was run: as §1
# Gal6S(b1-3)GlcNAc = target: Gal6S(b1-3)GlcNAc
# How it was run: as §1
binder,measurement,setting,value
B1,glycan array binding signal (z-score),[1],-0.109
same,glycan array binding signal (z-score),[2],-0.663
same,glycan array binding signal (z-score),[3],-0.864
same,glycan array binding signal (z-score),[4],1.06
same,glycan array binding signal (z-score),[5],0.25
same,glycan array binding signal (z-score),[6],-1.22
same,glycan array binding signal (z-score),[7],0.662
same,glycan array binding signal (z-score),[8],-0.962
same,glycan array binding signal (z-score),[9],-0.977
same,glycan array binding signal (z-score),[10],0.74
same,glycan array binding signal (z-score),[11],-2.41
same,glycan array binding signal (z-score),[12],-0.365
same,glycan array binding signal (z-score),[13],0.267
same,glycan array binding signal (z-score),[14],-0.614
same,glycan array binding signal (z-score),[15],-0.3
same,glycan array binding signal (z-score),[16],1.39
same,glycan array binding signal (z-score),[17],-0.473
same,glycan array binding signal (z-score),[18],0.227
same,glycan array binding signal (z-score),[19],-0.038
same,glycan array binding signal (z-score),Gal(b1-4)GlcNAc6P,0.225
same,glycan array binding signal (z-score),Gal(b1-6)Gal,0.132
same,glycan array binding signal (z-score),Gal3S(b1-3)GalNAc,0.274
same,glycan array binding signal (z-score),Gal3S(b1-3)GlcNAc,-0.799
same,glycan array binding signal (z-score),[20],-0.389
same,glycan array binding signal (z-score),Gal3S(b1-4)Glc,-0.903
same,glycan array binding signal (z-score),Gal3S(b1-4)Glc6S,0.638
same,glycan array binding signal (z-score),Gal3S(b1-4)GlcNAc,0.011
same,glycan array binding signal (z-score),Gal3S(b1-4)GlcNAc6S,-0.314
same,glycan array binding signal (z-score),[21],1.59
same,glycan array binding signal (z-score),[22],-0.427
same,glycan array binding signal (z-score),Gal3S4S(b1-4)GlcNAc,0.455
same,glycan array binding signal (z-score),Gal3S6S(b1-4)GlcNAc,0.029
same,glycan array binding signal (z-score),Gal3S6S(b1-4)GlcNAc6S,-1.08
same,glycan array binding signal (z-score),Gal4S(b1-4)GlcNAc,0.032
same,glycan array binding signal (z-score),Gal4S6S(b1-4)GlcNAc,-0.41
same,glycan array binding signal (z-score),Gal6P(b1-4)GlcNAc,1.27
same,glycan array binding signal (z-score),Gal6S(b1-3)GlcNAc,0.294

# Two entries from above, as tab-separated lines:
binder	measurement	setting	value
B1	glycan array binding signal (z-score)	[8]	-0.962
same	glycan array binding signal (z-score)	[9]	-0.977
